Source: PubChem BioAssay AID504834 (National Center for Advancing Translational Sciences (NCATS), 2011)
The campaign covered roughly 320,000 compounds. About 22,000 (6.9%) were called active. This list was built around the results that the source calls inconclusive (neither active nor inactive); the mix of calls is not that of the screen. The call rests on the fitted dose curve; in most records, active means well fitted inhibition curve with a large enough effect; inconclusive means small, poorly fitted or top-dose-only effect, or another doubt; inactive means no such curve, though single readings can be large or run the other way. Potencies of inconclusive entries are doubtful fits and often do not repeat.

Assay: Primary qHTS for delayed death inhibitors of the malarial parasite plastid, 96 hour incubation
Conditions: P. falciparum luciferase reporter growth; series mostly up to 28.7 µM
Summary of the method: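 Luminescence readout: decreased luciferase signal marks inhibited growth of reporter-expressing P. falciparum in infected red cells (2% hematocrit, 0.05% parasitemia final), exposed to compound two generations (96 h, 37 C, 5% CO2).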
Potency means the concentration at half of the fitted maximal effect.

Row | SMILES | Potency
1 | Cc1ccc(C(=O)NCCNS(C)(=O)=O)cc1 | inconclusive: 5.22 µM [inhibitor, partial curve]
2 | Cc1cc(C)cc(NC(=O)CC2NCCNC2=O)c1 (stereo not drawn) | inactive
3 | CCOC(=O)CC(NC(=O)c1ccc(C)cc1)c1ccc(OC)cc1 (stereo not drawn) | inconclusive: 6.57 µM [inhibitor, partial curve, poor fit]
4 | CCP(=O)(CC)C(C)(C)CP(=O)(c1ccccc1)c1ccccc1 | inactive
5 | COc1ccc(/C=C2\CC/C(=C\c3ccc(OC)cc3OC)C2=O)c(OC)c1 | inconclusive: 18.5 µM [inhibitor, single point]
6 | C/C=C(/C)C(=O)Nc1cccc(C2=NOC3(C2)C[C@@H](C(N)=O)N(C(=O)CC(c2ccccc2)c2ccccc2)C3)c1 (stereo partly drawn) | inconclusive: 18.5 µM [inhibitor, single point]
7 | COC(=O)C1=C(C)Nc2nnnn2C1c1cc(OC)ccc1OC (stereo not drawn) | inconclusive: 10.4 µM [inhibitor, partial curve, poor fit]
8 | Cc1cc(=O)oc2cc(OCC(=O)Nc3c(Cl)cccc3C(F)(F)F)ccc12 | inconclusive: 9.28 µM [inhibitor, single point]
9 | CC(=O)c1cccc(CN2CCCC(C(=O)c3ccc4c(c3)OCO4)C2)c1 (stereo not drawn) | inconclusive: 4.15 µM [inhibitor, single point]
10 | Cc1ccc(Nc2nc(C(=O)N3CCC(C(=O)NCCN4CCOCC4)CC3)cs2)cc1 | active: 4.65 µM
11 | Cc1cccc(C(=O)OCC(=O)c2c(N)n(CC(C)C)c(=O)n(C)c2=O)c1O | inconclusive: 16.5 µM [inhibitor, single point]
12 | CCOc1ccc(OCC)c(NC(=O)C2CCN(S(=O)(=O)c3cccc4nonc34)CC2)c1 | active: 13.1 µM
13 | CCCCCCCCCCCCCC[N+](C)(C)Cc1ccccc1 | active: 2.69 µM
14 | O=C(CCc1nc2ccccc2c(=O)[nH]1)Nc1cccc(S(=O)(=O)N2CCCCC2)c1 | inconclusive: 2.33 µM [inhibitor, full curve]
15 | Cc1cccc(CC2S/C(=N/c3cccc(C)n3)NC2=O)c1 (stereo not drawn) | inactive
16 | O=[N+]([O-])c1ccc(Cl)c(S(=O)(=O)Nc2ccc(-c3ccc(N4CCOCC4)nn3)cc2)c1 | inconclusive: 8.28 µM [inhibitor, partial curve]
17 | COc1cc(OC)cc(C(=O)NNC(=S)NC(=O)c2cccnc2)c1 | inconclusive: 10.4 µM [inhibitor, single point]
18 | CCn1c(/C=C/c2ccccc2F)nc2ccccc2c1=O | inconclusive: 5.86 µM [inhibitor, partial curve, poor fit]
19 | O=C(OCc1ccccc1)/C(=C/c1cccc2ccccc12)NC(=O)c1ccccc1 | inconclusive: 3.29 µM [inhibitor, full curve, poor fit]
20 | Cc1ccc(C(C)C)c(OCC(=O)NNC(=O)Cn2[nH]c(=O)c3ccccc3c2=O)c1 | inconclusive: 18.5 µM [inhibitor, single point]
21 | O=C(Cc1ccccc1)Nc1ccc(N2CCOCC2)cc1 | inconclusive: 18.5 µM [inhibitor, partial curve, poor fit]
22 | CC(C)(C)C(=O)Nc1cccc(-c2nnc(-c3cccc(NC(=O)C(C)(C)C)c3)o2)c1 | inconclusive: 6.57 µM [inhibitor, single point]
23 | Cc1ccnc(NC(=O)c2cccc(OC(F)F)c2)n1 | inactive
24 | Cc1ccc(-c2cn3cccnc3n2)cc1 | inconclusive: 18.5 µM [inhibitor, single point]
25 | Cc1cccc(OCC(=O)N(Cc2nnc(-c3ccccc3Cl)o2)C2CC2)c1 | inconclusive: 13.1 µM [inhibitor, single point]

Row | SMILES | Potency
26 | Cc1ccc(NS(=O)(=O)c2cccc(C(=O)NCC(c3ccc(F)cc3)N3CCOCC3)c2)cc1 (stereo not drawn) | inconclusive: 18.5 µM [inhibitor, single point]
27 | NS(=O)(=O)c1ccc(CCNC(=O)c2ccc(OCC3CCCO3)cc2)cc1 (stereo not drawn) | inactive
28 | Cc1ccc(S(=O)(=O)c2c(C)nn(C(C)(C)C)c2OC(=O)C(C)(C)C)cc1 | inconclusive: 7.38 µM [inhibitor, partial curve, poor fit]
29 | Cn1c(O)c(/C=N/N2CCCCC2)c(=O)[nH]c1=O | inconclusive: 18.5 µM [inhibitor, single point]
30 | COc1ccc(/C=C/C(=O)OC(C)CN2CCCCC2)cc1 (stereo not drawn) | inactive
31 | CCOC(=O)C1(Cc2cccc(OC)c2)CCN(Cc2csc(C(C)=O)c2)CC1 | inactive
32 | COc1ccc2nc(/C=N/NC(=O)[C@H](C)NC(=O)OC(C)(C)C)ccc2c1 | inactive
33 | O=C(Nc1ncc(C(F)(F)F)cc1Cl)C1COc2ccccc2O1 (stereo not drawn) | inconclusive: 2.08 µM [inhibitor, partial curve, poor fit]
34 | CC(C)n1nnnc1SCC(=O)Nc1ccc2c(c1)OCO2 | inconclusive: 11.7 µM [inhibitor, single point]
35 | CC(C)CCN(C)c1ccc(/C=N/n2cnnc2)cc1 | inconclusive: 9.28 µM [inhibitor, single point]
36 | COC(=O)CCCCCCCCC(O)CN1CCCCC1 (stereo not drawn) | inactive
37 | O=C(Nc1ccc2c(c1)CCC2)c1c(F)cccc1Cl | inactive
38 | O=[N+]([O-])c1ccc(OCC(O)CNC2CCCC2)cc1 (stereo not drawn) | inactive
39 | COc1ccccc1NS(=O)(=O)c1cc(NC(=O)c2[nH]c(C)c(C(C)=O)c2C)ccc1N1CCOCC1 | inconclusive: 5.22 µM [inhibitor, partial curve, poor fit]
40 | COC1CCCCC1Nc1ccc(C)c(C)c1 (stereo not drawn) | active: 2.08 µM
41 | COc1ccc(C(=O)C[n+]2cccc(C(N)=O)c2)cc1 | inconclusive: 18.5 µM [inhibitor, single point]
42 | CCN(C(=O)CCc1nc(-c2ccc(OC)cc2)no1)c1cc(OC)ccc1OC | inconclusive: 4.15 µM [inhibitor, partial curve, poor fit]
43 | COc1ccc(C(=O)Nc2ccc(S(=O)(=O)N3CCN(C)CC3)cc2)cc1[N+](=O)[O-] | inconclusive: 10.4 µM [inhibitor, single point]
44 | CC(NCc1ccccc1OC1CCCC1)c1ccccc1 (stereo not drawn) | inconclusive: 18.5 µM [inhibitor, single point]
45 | COCCOCCn1cnc2ccccc21 | inactive
46 | Cc1ccc(NS(=O)(=O)c2cc(C(=O)O)ccc2Cl)cc1 | inconclusive: 18.5 µM [inhibitor, single point]
47 | CCCCNC(=O)O[C@@H]1C[C@@H]2CCN3C(=O)CCC[C@H]([C@H]1CC)[C@H]23 | inconclusive: 6.57 µM [inhibitor, partial curve, poor fit]
48 | CC1CCCC(C)N1CCCNC(=O)C1CCCN(c2ncnc3c2nc2n3CCCCC2)C1 (stereo not drawn) | inactive
49 | Cc1cc(C)cc(OCC(=O)N/N=C/c2ccco2)c1 | inactive
50 | CC(=O)c1cccc(OCc2cc(C(=O)N(C)CCc3ccccn3)no2)c1 | inconclusive: 14.7 µM [inhibitor, partial curve, poor fit]

At a glance, some entries already given.
Row | SMILES | Potency
41 | COc1ccc(C(=O)C[n+]2cccc(C(N)=O)c2)cc1 | inconclusive: 18.5 µM [inhibitor, single point]
42 | CCN(C(=O)CCc1nc(-c2ccc(OC)cc2)no1)c1cc(OC)ccc1OC | inconclusive: 4.15 µM [inhibitor, partial curve, poor fit]
43 | COc1ccc(C(=O)Nc2ccc(S(=O)(=O)N3CCN(C)CC3)cc2)cc1[N+](=O)[O-] | inconclusive: 10.4 µM [inhibitor, single point]

Going on with the list:

Row | SMILES | Potency
51 | CC(C)(C)c1ccc(-c2nnc(N)s2)cc1 | inactive
52 | CCOC(=O)c1ccccc1NC(=O)c1cccc([N+](=O)[O-])c1 | inactive
53 | O=C(CN1CCC(NC(=O)c2ccc(Br)cc2)CC1)NCc1cccs1 | inconclusive: 5.22 µM [inhibitor, partial curve, poor fit]
54 | CCc1ccc(NC(=O)COc2coc(CN3CCN(c4ccccc4)CC3)cc2=O)cc1 | inconclusive: 4.15 µM [inhibitor, single point]
55 | Cc1nc2ncnn2c(C)c1CCC(=O)O | inconclusive: 8.28 µM [inhibitor, partial curve, poor fit]
56 | CC(/C=N/NC(=O)Cn1cnc2c1c(=O)n(C)c(=O)n2C)=C\c1ccccc1 | inactive
57 | C/C(=N\NC(=O)c1cc(C)oc1C)c1ccc2ccccc2c1 | inactive
58 | COc1ccc(CN2CCN(Cc3ccc4cc(F)ccc4n3)CC2CCO)c(C)c1C (stereo not drawn) | inconclusive: 18.5 µM [inhibitor, single point]
59 | O=C(c1ccncc1)N1CCCC(N2CCN(c3cccc(C(F)(F)F)c3)CC2)C1 (stereo not drawn) | inconclusive: 5.22 µM [inhibitor, partial curve]
60 | Cc1ccc(CCNC(=O)CC2Oc3ccc(C)cc3NC2=O)cc1 (stereo not drawn) | inactive
61 | CCCCC1CCC(C(=O)Nc2ccc(N3CCOCC3)cc2N2CCOCC2)CC1 (stereo not drawn) | inconclusive: 18.5 µM [inhibitor, single point]
62 | O=C(COC(=O)c1cc(=O)[nH]c2ccccc12)NC(=O)c1ccccc1 | inactive
63 | CCCN=CC1=C(O)CC(c2ccccc2)CC1=O (stereo not drawn) | inactive
64 | O=C(c1ccccc1)N1CCN(C(=S)NCc2ccco2)CC1 | inactive
65 | CC1CC(C)CN(C(=O)c2ccc(CSc3nc4ccncc4[nH]3)cc2)C1 (stereo not drawn) | inactive
66 | COc1ccc(CCNC(=O)COc2ncnc3ccccc23)cc1 | inactive
67 | CCOc1ccc(-c2cc(C(=O)O)c3ccccc3n2)c(OCC)c1 | inconclusive: 13.1 µM [inhibitor, single point]
68 | O=C(NCc1ccc(F)cc1)C1CCN(C(=O)Nc2ccc(F)cc2)CC1 | inactive
69 | CCCCCn1c(CN2CCN(CCO)CC2)nc2c1c(=O)n(C)c(=O)n2C | inconclusive: 0.0522 µM [inhibitor, full curve, poor fit]
70 | FC(F)(F)c1ccc(Nc2nnnc3ccccc23)cc1 | active: 1.47 µM
71 | Cc1cccc(N2C(=O)SC(N(C)c3ccccc3)C2=O)c1 (stereo not drawn) | inactive
72 | O=c1cc(C(F)(F)F)[nH]c2ccccc12 | inconclusive: 16.5 µM [inhibitor, single point]
73 | Cc1ccccc1NC(=O)C(=Cc1ccc(C(=O)O)cc1)C(=O)Nc1ccccc1C | inconclusive: 18.5 µM [inhibitor, single point]

Taken from above:
Under Potency, COC(=O)C1=C(C)Nc2nnnn2C1c1cc(OC)ccc1OC (stereo not drawn) is listed with inconclusive: 10.4 µM [inhibitor, partial curve, poor fit]
Under Potency, Cc1ccc(C(C)C)c(OCC(=O)NNC(=O)Cn2[nH]c(=O)c3ccccc3c2=O)c1 is listed with inconclusive: 18.5 µM [inhibitor, single point]
